Assay results reported in the supplement of paper PMC12889115.
The other results are listed elsewhere or left out. Values are raw readings; no control value is given beside them.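 First-pass screen: polymyxin B was added at a level that permeabilizes the Salmonella outer membrane while sparing the inner membrane. DMSO wells, with and without polymyxin B, defined maximum growth. Because plates differed from one another, each plate's data were ranked separately and the compounds with the lowest OD600 were carried forward as hits.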

Tested on: Salmonella enterica serovar Typhimurium SL1344
Test: bacterial growth OD600 after 18 h with compound and polymyxin B; higher = more bacterial growth (less inhibition)
Settings: 50 µM, Mueller-Hinton broth

| Compound | bacterial growth OD600 (polymyxin B 0.75 µg/mL) | bacterial growth OD600 (polymyxin B 1 µg/mL) |
| --- | --- | --- |
| CN(C(=O)c1cccs1)C(Cc1ccccc1)C1CCN(C(=O)C2=CCCC2)CC1 (configuration not stated) | 0.834 |  |
| COc1cccc(OC)c1CN1CCOc2ccc(C(C)(O)COc3ccccc3)cc2C1 (configuration not stated) | 0.779 |  |
| CCCC1(C2CCN(C(=O)c3ccc(F)cc3F)CC2)NC(=O)N(CCc2ccccn2)C1=O (configuration not stated) | 0.922 |  |
| COc1cccc(C(=O)N2CCCC(N3CCN(c4ccccc4C)CC3)C2)c1 (configuration not stated) |  | 0.786 |
| Cc1cccnc1CC(C)Nc1nc2nonc2nc1NC1CC1 (configuration not stated) | 0.746 |  |
| O=C1CCCN1CCC(=O)N1CCCC(CCc2ccccc2C(F)(F)F)C1 (configuration not stated) | 0.632 |  |
| O=C(c1cnc2ccccn2c1=O)N1CCc2c([nH]c3ccccc23)C1c1ccccn1 (configuration not stated) |  | 0.86 |
| O=C(NCCC1=CCCCC1)C1CC12CCN(C(=O)CCc1ccc3c(c1)OCO3)CC2 (configuration not stated) | 0.005 |  |
| CCc1cnc(N2CCC(C3CCN(Cc4cccnc4)CC3)C2)nc1 (configuration not stated) | 0.725 |  |
| CCC1CN(Cc2cc(OC)c3c(c2)OCO3)Cc2cc(OC)ccc2O1 (configuration not stated) | 0.009 |  |
| Fc1ccccc1CN(CC1CCN(C2CCCC2)CC1)CC1CCCO1 (configuration not stated) |  | 0.849 |
| CN(C(=O)CCc1cccnc1)C1CCCN(Cc2ccccc2F)C1 (configuration not stated) |  | 1.05 |
| O=C(c1cn(C/C=C/c2ccccc2)nn1)N1CCN(c2cccc(Cl)c2)CC1 |  | 0.825 |
| O=C(Nc1ccc(Oc2ccccc2F)cc1)C1CCN(Cc2cccnc2)CC1 | 0.011 |  |
| COc1c(C)cc(C(=O)C2CCCN(Cc3cccc(C(C)=O)c3)C2)cc1C (configuration not stated) |  | 0.897 |
| CN(Cc1cccc(-n2cccn2)c1)C(=O)Cn1nnnc1CN1CCCC1 |  | 0.806 |

Reformatted: results already given.
CCc1cnc(N2CCC(C3CCN(Cc4cccnc4)CC3)C2)nc1 (configuration not stated)
  bacterial growth OD600 (polymyxin B 0.75 µg/mL): 0.725
CCC1CN(Cc2cc(OC)c3c(c2)OCO3)Cc2cc(OC)ccc2O1 (configuration not stated)
  bacterial growth OD600 (polymyxin B 0.75 µg/mL): 0.009

Next part.

| Compound | bacterial growth OD600 (polymyxin B 0.75 µg/mL) | bacterial growth OD600 (polymyxin B 1 µg/mL) |
| --- | --- | --- |
| O=C(c1ccc(N2CCC(O)CC2)nc1)N1CCC(CCn2cccn2)CC1 | 0.8 |  |
| c1cncc(C2CCCCN2c2nc3nonc3nc2N2CCOCC2)c1 (configuration not stated) | 0.773 |  |
| COc1ccc(/C=C/CN2CCOc3ccc(C(O)Cc4ccccc4)cc3C2)cc1 (configuration not stated) | 0.024 |  |
| COc1ccc(OC2CCN(C(=O)C3CC3)CC2)c(C(=O)NCc2cnc(C)cn2)c1 |  | 0.921 |
| CN(CC1CCOCC1)c1nncc(-c2ccc(F)cc2)n1 | 0.76 |  |
| Cc1ccc(-c2nnc(CCC(=O)NCCc3cccc4ccccc34)o2)s1 | 0.001 |  |
| Cc1cc(C(=O)NCc2cccnc2N(C)Cc2ccccc2)c(=O)[nH]c1C | 0.589 |  |
| COC(=O)CNC(=O)c1csc2nc(-c3ccccc3)cn12 |  | 0.882 |
| O=C(NCCN1Cc2ccccc2OC(c2ccsc2)C1)C1CC(=O)N(Cc2ccccn2)C1 (configuration not stated) | 0.798 |  |
| CN1CCN(c2ncccc2CNC(=O)C[C@@H]2C[C@@H]3C=C[C@H]2C3)CC1 | 0.825 |  |
| C=C(C)CN(C)c1ccc(C(=O)N2CCC(CN3CCCC3=O)CC2)cn1 | 0.779 |  |
| COc1ccc2c(c1)OC(C)CN(CC(=O)N1CCC(c3nc4ccccc4o3)CC1)C2 (configuration not stated) | 0.939 |  |
| COc1ccccc1C1(CC(=O)N2CCCOc3c(cccc3OC)C2)CC(=O)N(C)C1=O (configuration not stated) | 0.951 |  |
| O=C(NCc1ccc2c(c1)OCO2)c1coc(COc2cccc(F)c2F)n1 |  | 0.84 |
| Cc1ccc2[nH]c(CN(C)C(=O)C3CCC(=O)N(C4CCCCCC4)C3)nc2c1 (configuration not stated) |  | 1.19 |
| O=C(c1ccc(N2CCCCCCC2)nc1)N1CCC(Cn2cccn2)CC1 |  | 0.645 |
